In article PMC10999543, “Identification of kinase modulators as host-directed therapeutics against intracellular methicillin-resistant Staphylococcus aureus” (Frontiers in Cellular and Infection Microbiology, 2024):
Read-outs that look alike come from different tables or passages of the source.

Test system: intracellular MRSA
Type: cell-based, Staphylococcus aureus
Conditions: for %GFP+ rep 1 / %GFP+ rep 2 / %GFP+ rep 3: PKIS compound screen raw data; for %GFP+ rep 1 / %GFP+ rep 2 / %GFP+ rep 3 / z-scoreMRSA+ mean / z-scoreMRSA+ rep 1 / z-scoreMRSA+ rep 2 / z-scoreMRSA+ rep 3: MRSA-infected HeLa cells; for %GFP+ rep 1 / z-scoreMRSA+ rep 1: replicate 1; for %GFP+ rep 2 / z-scoreMRSA+ rep 2: replicate 2; for %GFP+ rep 3 / z-scoreMRSA+ rep 3: replicate 3; for z-scoreMRSA+ mean: mean of 3 replicates
Description: The cells were resuspended in cell culture medium without antibiotics, seeded with 10,000 cells/well into Costar flat-bottom 96-well plates (Corning, Amsterdam, the Netherlands), and were incubated overnight at 37°C/5% CO2. The next day, the bacteria were centrifuged at ≥1800 g for 15 min and resuspended in cold PBS + 5 mM ethylenediaminetetraacetic acid (EDTA). The number of CFUs present in the bacterial suspension was estimated from the optical density at 600 nm (OD600) by assuming 8x10^8 CFUs to be present in a bacterial suspension with OD600 = 1, based on prior titrations. The bacterial suspension was diluted in cell culture medium without antibiotics and added to the cells. Accuracy of the multiplicity of infection (MOI) was validated by plating serial dilutions of the MRSA inoculums on Difco TS agar plates (BD Biosciences). The calculated mean MOI throughout all experiments was 6.8 ± 4.6 (mean ± SD). Infected cells were centrifuged for 3 min at 150 g and incubated for 1 hour at 37°C/5% CO2. Next, the cells were incubated with fresh cell culture medium supplemented with 30 µg/ml gentamicin sulphate (Lonza BioWhittaker, Basel, Switzerland) for 15 min at 37°C/5% CO2 to kill residual extracellular bacteria. Infected cells were incubated overnight at 37°C/5% CO2 in cell culture medium in the presence of kinase inhibitors and 5 µg/ml gentamicin sulphate-containing medium to prevent the growth of extracellular bacteria. The solvent of the compounds, DMSO, was used at equal % v/v as a negative control. For the screen, each compound was tested in triplicate, on separate cell culture plates, resulting in triplicate values for each kinase inhibitor.
HeLa cells were harvested by trypsinization and fixed with 1% paraformaldehyde. Samples were measured on a FACSLyric with HTS extension (BD Biosciences). Flow cytometry data were analysed using FlowJo version 10 (TreeStar, Ashland, OR, USA). HeLa cells positive for GFP were gated to calculate the percentage of MRSA-infected cells. The cell count was used as surrogate readout of cell viability.
To identify potential “hit” compounds, the flow cytometry data were used to calculate standard z-scores using z = (x-μ)/σ – zneg, where x is total event count or the percent of GFP-positive cells from a single well, μ is the mean from wells of the plate, σ is the standard deviation of the plate and zneg is the mean z-score of the negative control of the plate (i.e., DMSO) ([Korbee et al., 2018]). To minimize the possibility that the presence of extreme values on a plate affected the z-scores, raw values that deviated two-fold from the negative controls were excluded when calculating plate means and standard deviations as used in the aforementioned formula. Compounds were considered a “hit” when z-scoreMRSA+ ≤ -2 and z-scoreHeLa ≥ -3 for cell count. In cases where compounds were screened twice, the average values were used to select hit compounds.

| Compound | %GFP+ rep 1 | %GFP+ rep 2 | %GFP+ rep 3 | z-scoreMRSA+ mean (PKIS compound screen) | z-scoreMRSA+ rep 1 (PKIS compound screen) | z-scoreMRSA+ rep 2 (PKIS compound screen) | z-scoreMRSA+ rep 3 (PKIS compound screen) | hit (PKIS compound screen, Yes/No call (effect without cell death)) | effect (PKIS compound screen, Yes/No call on z-scoreMRSA+) | effect (Yes/No call from z-scoreMRSA+) | hit (Yes/No: effect without cell death) | z-scoreMRSA+ mean (compound screen) | z-scoreMRSA+ rep 1 (compound screen) | z-scoreMRSA+ rep 2 (compound screen) | z-scoreMRSA+ rep 3 (compound screen) |
| --- | --- | --- | --- | --- | --- | --- | --- | --- | --- | --- | --- | --- | --- | --- | --- |
| Cc1cc(C)cc(Oc2nccc(-c3c(-c4ccc(F)cc4)ncn3C3CCNCC3)n2)c1 [SB-284851-BT] | 13.8% | 15.4% | 15.3% | -1.20 | -1.29 | -0.94 | -1.37 | No | No |  |  |  |  |  |  |
| Cc1ccc(C)c(Oc2nccc(-c3c(-c4ccc(F)cc4)ncn3C3CCNCC3)n2)c1 [SB-284852-BT] | 16.8% | 17.7% | 18.3% |  |  |  |  |  |  | No | No | -0.60 | -0.53 | -0.47 | -0.80 |
